Tested on: molinate-MoAb 14D7 immunocomplex
Assay: Noncompetitive phage ELISA (PHAIA) for molinate
Assay type: binding
Description: In a similar way that the IC50 (the analyte concentration producing 50% inhibition) is used to denote the sensitivity of competitive methods, we refer to the concentration of analyte producing 50% saturation (SC50) in noncompetitive assays as a practical parameter to compare the sensitivity of our assays. […] For each of these clones, the assay conditions were optimized as described previously. […] These differences highlight the importance of the residues that flank the WDT consensus sequence of the selected peptides. This can be seen in the case of the S1 and S4 peptide sequences, which only differ in two amino acids and yield assays with SC50 of 5 and 32 ng/ml, respectively.
Nunc-Immuno™ Maxi-Sorp™ plates were coated with MoAb 14D7 or molinate-MoAb 14D7 immunocomplex as described previously. The wells were blocked with 5% skimmed milk PBS, and washed three times with PBST. […] The enzymatic reaction was stopped after 15-20 min by the addition of 50 μl of 2 M H2SO4, and the absorbance at 450 nm (corrected at 600 nm) was read in a microtiter plate reader (Multiskan MS, Labsystems). The supernatants showing high readings in wells coated with the immunocomplex and low response in antibody coated wells were prepared as stabilized phage suspensions (see below), and use for further analysis. […]

C S T W D T T G W C (CSTWDTTGWC; phage-displayed on pVIII, cyclic) [1M]
DL (lower detection limit) (molinate, zero standard plus three times its standard deviation): 0.73 ng/mL | sensitivity relative to the competitive ELISA (versus competitive ELISA IC50=69.2±1.4 ng/ml with the same MoAb): about 14 times

Reference: patent US20080305559A1, “Non-Competitive Immunoassays to Detect Small Molecules” (priority 2005, published 2008)
